Data as given in patent US7026125.
Negatives hold for the conditions tested. For part of these data: The exact form of at least one protein or probe is not confirmed.

Amino acid sequences for entries named in this document (tags omitted). A change or cut given only in a name is not applied to a line headed by its entry.
UniProt P19793: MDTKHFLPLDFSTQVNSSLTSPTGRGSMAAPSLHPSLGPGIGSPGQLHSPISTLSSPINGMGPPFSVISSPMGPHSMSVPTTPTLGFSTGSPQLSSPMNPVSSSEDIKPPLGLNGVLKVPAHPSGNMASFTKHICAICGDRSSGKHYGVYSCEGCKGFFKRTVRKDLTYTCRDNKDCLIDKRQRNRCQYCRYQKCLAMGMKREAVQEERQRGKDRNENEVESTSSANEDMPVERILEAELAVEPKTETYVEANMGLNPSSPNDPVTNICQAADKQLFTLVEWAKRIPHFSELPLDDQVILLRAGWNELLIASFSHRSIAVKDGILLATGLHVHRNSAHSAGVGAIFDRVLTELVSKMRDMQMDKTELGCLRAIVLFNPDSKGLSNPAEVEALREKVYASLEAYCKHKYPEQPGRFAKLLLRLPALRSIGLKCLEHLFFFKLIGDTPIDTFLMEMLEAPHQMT

Experiments:
Assay in all cases: EMSA
[1] = system: TRα + RXRαm1 RXRα C-terminal deletion of 60 aa; conditions: no heterodimer upshift or enhancement; protein translated in vitro; label: 32P
[2] = system: RARγ + RXRαm7 RXRα internal deletion of hinge and N-terminal half of ligand binding domain; conditions: protein translated in vitro; label: 32P
[3] = system: RARγ + RXRαm6 RXRα internal deletion lacking DNA binding domain; conditions: protein translated in vitro; label: 32P
RXRα (Homo sapiens) = RXRα (Homo sapiens) (UniProt P19793); conditions: no visible complex at concentration used; protein translated in vitro; label: 32P
[4] = system: RARγm1 + RXRα RARγ C-terminal deletion of 102 aa; conditions: protein translated in vitro; label: 32P
[5] = system: TRα + RXRαm2 RXRα C-terminal deletion of 75 aa; conditions: no heterodimer upshift or enhancement; protein translated in vitro; label: 32P

Measured: binding result

GATCTCAGGTCATGACCTGAGATC (double strand) [palindromic TRE]
no binding: all assays above
